PubChem BioAssay AID1259331 – Drosophila RNAi Screening Center | 2017

- Purpose: 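Genes whose knock-down changes cell survival under toxic zinc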 (primary screen)
- Cell system: Drosophila S2R+ cells
- Reagents: long dsRNA against Drosophila genes
- Timing: 5 days (4 days knock-down, then 1 day zinc)
- Conditions: zinc chloride at 15 mM final level for 1 day
- Read-out: 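Total cellular ATP measured by luciferase luminescence as a viability proxy, turned into Z scores from three plate copies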
- Direction: mean Z score: higher = more ATP than other wells, better survival under zinc; ATP luminescence: higher = more ATP, more viable cells
- Hit rule: 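a reagent is called a hit when its Z score is above 1.5 or below -1.5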
- Meaning of the calls: active = hit, ATP up or down; inactive = not a hit
The deposit covers about 3,100 reagents; below is a part drawn at random. Of all reagents, 126 (4.1%) are marked active. 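Calls are per reagent; zinc was so toxic that few knock-downs lowered ATP further, so most hits raise ATP.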 Raw values vary from plate to plate and are shown uncorrected. Unmarked entries are inactive. A plus sign joins genes that one reagent is predicted to hit. Reagent sequences are not shown. Not given: the amount of reagent.

target,amplicon,mean Z score,"ATP luminescence, replicate 1","ATP luminescence, replicate 2"
Mpv17,DRSC17198,-0.784,45217,61054
CG14731,DRSC14952,-0.402,39054,49761
CG14731,DRSC39683,0.11,65571,53756
Ir56d,DRSC06590,-0.00113,69773,70939
Ir56d,DRSC28383,0.145,63599,63650
Sec22,DRSC29297,-0.238,55213,60289
Sec22,DRSC39605,-0.315,57511,56122
NPFR,DRSC12173,-0.462,50921,63153
CG14691,DRSC14914,-0.514,33233,49778
CG14691,DRSC27957,0.808,76513,68092
amrt,DRSC19378,-0.0523,65742,64611
amrt,DRSC26943,-0.378,55196,50961
Zdhhc8,DRSC18122,2.41 (active),1.09e5,1.03e5
Zdhhc8,DRSC39517,1.26,76462,62227
rpk,DRSC21656,-0.0971,46366,46777
CG4073,DRSC15542,-0.128,38222,57048
mthl15,DRSC01120,-0.194,41256,43382
mthl15,DRSC39743,0.261,62278,65468
ItgaPS5,DRSC04501,0.267,52658,39508
ItgaPS5,DRSC28842,-0.0784,61884,58454
CG2187,DRSC15425,0.538,75210,74729
CG2187,DRSC25548,0.00862,61747,61301
Irk2,DRSC15569,-0.487,38244,42011
Irk2,DRSC39572,-0.0539,61643,62227
Syx1A,DRSC15359,-0.241,36478,55299
Syx1A,DRSC21554,-0.0769,42011,51869
Or92a,DRSC16771,-0.213,41942,55539
Tre1,DRSC18726,6.21 (active),1.65e5,1.73e5
Tre1,DRSC28244,-0.143,55815,57357
CarT,DRSC03196,-0.212,54091,52298
CarT,DRSC27070,-0.209,44805,64816
Or74a,DRSC11245,-0.313,71569,55213
Sr-CIII,DRSC22262,0.11,54579,59277
CG17075,DRSC00483,0.0798,57157,57545
CG17075,DRSC26505,-0.301,57923,48200
Sec61gamma,DRSC19570,-0.217,38643,40262
Sec61gamma,DRSC25563,-0.355,40656,59620

Next part, starting with the last 6 of the part before.
target,amplicon,mean Z score,"ATP luminescence, replicate 1","ATP luminescence, replicate 2"
Or74a,DRSC11245,-0.313,71569,55213
Sr-CIII,DRSC22262,0.11,54579,59277
CG17075,DRSC00483,0.0798,57157,57545
CG17075,DRSC26505,-0.301,57923,48200
Sec61gamma,DRSC19570,-0.217,38643,40262
Sec61gamma,DRSC25563,-0.355,40656,59620
CG42594,DRSC18408,-0.61,53636,58265
CG42594,DRSC28979,0.223,66736,62878
Hgsnat,DRSC18405,-0.214,41535,43228
Hgsnat,DRSC24716,-0.615,45525,41719
Tim17a2,DRSC12252,1.12,95983,80132
Tim17a2,DRSC23837,2.31 (active),82276,87028
sut4,DRSC07703,-0.548,27868,27079
sut4,DRSC24885,0.0343,57151,57642
caps,DRSC11333,-0.0188,74948,60186
caps,DRSC22224,0.0297,49778,60581
CG14194,DRSC19549,4.51 (active),99260,93976
Tsp74F,DRSC10508,-0.0778,77373,57974
Osi16,DRSC21323,0.0362,48012,49986
fz4,DRSC18780,-0.723,52624,55539
ppk8,DRSC17269,-0.233,70527,57815
ppk8,DRSC39772,0.572,62175,66531
CG1662,DRSC19754,-0.104,43005,44240
rdog,DRSC14431,-1.78 (active),25240,25829
rdog,DRSC26545,-1.84 (active),33524,31039
Ant2,DRSC26446,-0.188,55642,56208
Unc-115b + p24-2,DRSC16492,0.213,44981,48783
Or43b,DRSC07486,-0.615,51938,65748
Or43b,DRSC29565,0.266,65650,65331
CG3652,DRSC00624,0.47,58797,47480
Cox10,DRSC02804,-0.177,53053,54424
Cox10,DRSC39538,0.214,54339,52675
Task7,DRSC16477,-0.111,35085,57099
Task7,DRSC26662,0.0826,58643,58917
Eglp4,DRSC04438,1.15,64833,49280
Eglp4,DRSC25991,-0.108,51955,58073
wfs1,DRSC15676,0.157,34124,59260
